Reference: the supplement of paper PMC7752906
Counter-ions that a name gives are not always drawn. The list shows a part of the results. Repeats in this data set agree poorly, so a single value says little.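 Wells held roughly 40 S. mansoni schistosomula, imaged in bright field over time against wells given 0.1% DMSO. The paper defines hits as drugs with a Mahalanobis distance of at least 2.47, three standard deviations above the DMSO control mean. Degeneracy is the proportion of worms classified as opaque.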 Bridge positions count the residues as written; N and C are the ends. Square brackets hold non-standard residues; d marks the D form. Peptide text beside a SMILES is read from it. * marks the point of attachment. Ileψ(thiazoline)Cys = CC[C@H](C)[C@H](N)C1=N[C@H](C(=O)*)CS1; dOrn = NCCC[C@@H](N)C(=O)O

tested on: Schistosoma mansoni schistosomula; test: degeneracy (percent of somules classified as degenerate/opaque); higher = more parasite degeneration/death; extreme values may be limits of the assay; details: 10 µM; 72 h

Going from `C[C@H](CCC(=O)O)[C@H]1CC[C@H]2[C@@H]3[C@H](O)C[C@@H]4C[C@H](O)CC[C@]4(C)[C@H]3C[C@H](O)[C@]12C` [Cholic Acid] to `C[C@]12CCC(=O)C=C1CC[C@@H]1[C@@H]2[C@@H](O)C[C@@]2(C)[C@H]1CC[C@]2(O)C(=O)CO` [Hydrocortisone], the degeneracy falls from 12.8% to 5.41%.

First: Cc1c(OCC(F)(F)F)ccnc1C[S@@+]([O-])c1nc2ccccc2[nH]1 [Dexlansoprazole]
Second: COc1ccc2[nH]c([S+]([O-])Cc3ncc(C)c(OC)c3C)nc2n1 (stereo not given) [Tenatoprazole]
The degeneracy of the first is higher: 5% for the first, 0% for the second.

Going from `O=C(OCC(O)CO)c1ccccc1Nc1ccnc2cc(Cl)ccc12` (stereo not given) [Glafenine] to `CC(CCc1ccccc1)NCC(O)c1ccc(O)c(C(N)=O)c1` (stereo not given) [Labetalol], the degeneracy falls from 13.6% to 13.3%.

Compared with `Nc1nc2ccc(OC(F)(F)F)cc2s1` [Riluzole], `O=C(O)c1cccnc1Nc1cccc(C(F)(F)F)c1` [Niflumic Acid] is lower in degeneracy: 39.5% for the first, 2.22% for the second.

Compared with `O=C(C1CCCCC1)N1CC(=O)N2CCc3ccccc3C2C1` (stereo not given) [praziquantel], `CCC(=O)O[C@@H](O[P@](=O)(CCCCc1ccccc1)CC(=O)N1C[C@H](C2CCCCC2)C[C@H]1C(=O)O)C(C)C` [Fosinopril] is lower in degeneracy: 77.8% for the first, 23.8% for the second.

Compared with `COc1ccc2c(c1OC)C(=O)O[C@@H]2[C@H]1c2c(cc3c(c2OC)OCO3)CCN1C` [Noscapine Hydrochloride], `COc1cccc2c1C(=O)c1c(O)c3c(c(O)c1C2=O)C[C@@](O)(C(=O)CO)C[C@@H]3O[C@H]1C[C@H](N)[C@H](O)[C@H](C)O1` [Doxorubicin] is lower in degeneracy: 3.03% for the first, 0% for the second.

Going from `CCOC(=O)O[C@]1(C(=O)COC(=O)CC)CC[C@H]2[C@@H]3CCC4=CC(=O)C=C[C@]4(C)[C@H]3[C@@H](O)C[C@@]21C` [Prednicarbate] to `CC(=O)O[C@@]12CO[C@@H]1C[C@H](O)[C@@]1(C)C(=O)[C@H](O)C3=C(C)[C@@H](OC(=O)[C@H](O)[C@@H](NC(=O)OC(C)(C)C)c4ccccc4)C[C@@](O)([C@@H](OC(=O)c4ccccc4)[C@H]21)C3(C)C` [Docetaxel], the degeneracy rises from 6.06% to 92.3%.

First: CC(C)(C)NCC(O)COc1cccc2c1CCC(=O)N2 (stereo not given) [Carteolol Hydrochloride]
Second: COc1ccc(OC)c(C(O)CNC(=O)CN)c1 (stereo not given) [Midodrine]
The degeneracy of the first is higher: 3.12% for the first, 0% for the second.

Going from `CC(S)C(=O)NCC(=O)O` (stereo not given) [Tiopronin] to `O=C(O)CCCCC(=O)O` [Adipic Acid, Hexanedioic Acid], the degeneracy rises from 3.03% to 9.09%.

`CN1CCN(CCCN2c3ccccc3Sc3ccc(C(F)(F)F)cc32)CC1` [trifluoperazine] and `CN(C)CCCN1c2ccccc2Sc2ccccc21` [Promazine] are the same in degeneracy: 100% for the first, 100% for the second.

Compared with `OC(CNCC(O)C1CCc2cc(F)ccc2O1)C1CCc2cc(F)ccc2O1` (stereo not given) [Nebivolol Hydrochloride], `Cc1ccc(Nc2c(F)cccc2Cl)c(CC(=O)O)c1` [Lumiracoxib] is lower in degeneracy: 8.11% for the first, 5% for the second.

First: CC[C@H](C)[C@H](N)C1=N[C@H](C(=O)N[C@@H](CC(C)C)C(=O)N[C@H](CCC(=O)O)C(=O)N[C@H](C(=O)N[C@H]2CCCCNC(=O)[C@H](CC(N)=O)NC(=O)[C@@H](CC(=O)O)NC(=O)[C@H](Cc3cnc[nH]3)NC(=O)[C@@H](Cc3ccccc3)NC(=O)[C@H]([C@@H](C)CC)NC(=O)[C@@H](CCCN)NC2=O)[C@@H](C)CC)CS1 [Bacitracin] ({Ileψ(thiazoline)Cys}-L[dE]IK[dOrn]I[dF]H[dD]N; lactam 4-C)
Second: CCOC(=O)[C@H](CCc1ccccc1)N[C@@H](C)C(=O)N1Cc2ccccc2C[C@H]1C(=O)O [Quinapril]
The degeneracy of the first is lower: 3.85% for the first, 15.6% for the second.

Going from `CC(=O)NS(=O)(=O)c1ccc(NC(=O)c2ccccc2C(=O)O)cc1` [Phthalylsulfacetamide] to `Cc1onc(-c2ccccc2)c1-c1ccc(S(N)(=O)=O)cc1` [Valdecoxib], the degeneracy falls from 7.14% to 3.57%.

First: CN(C)CCOC(C)(c1ccccc1)c1ccccn1 (stereo not given) [Doxylamine Succinate]
Second: CN(C)CCN(Cc1ccccc1)c1ccccn1 [Tripelennamine]
The degeneracy of the first is lower: 7.14% for the first, 14.3% for the second.

First: C=CCNC(N)=S [Allylthiourea]
Second: N=C(N)NS(=O)(=O)c1ccc(N)cc1 [Sulfaguanidine]
The degeneracy of the first is lower: 0% for the first, 14.3% for the second.

First: Oc1c(I)cc(Cl)c2cccnc12 [Clioquinol]
Second: CC(C(=O)O)c1ccc2c(c1)Cc1cccnc1O2 (stereo not given) [Pranoprofen]
The degeneracy of the first is higher: 100% for the first, 4.17% for the second.

First: CN(C(=O)C(Cl)Cl)c1ccc(OC(=O)c2ccco2)cc1 [Diloxanide Furoate]
Second: Cc1ccc2c(Br)cc(Br)c(OC(=O)c3ccccc3)c2n1 [broxaldine]
The degeneracy of the first is lower: 5.41% for the first, 100% for the second.

Going from `Cc1cc2c(cc1S(N)(=O)=O)S(=O)(=O)CCC2` [Meticrane] to `CC1CNc2c(cccc2S(=O)(=O)N[C@@H](CCCNC(=N)N)C(=O)N2CC[C@@H](C)C[C@@H]2C(=O)O)C1` (stereo not given in full) [Argatroban], the degeneracy falls from 14.3% to 5.41%.

`CC1(C)S[C@@H]2[C@H](NC(=O)[C@H](NC(=O)N3CCNC3=O)c3ccccc3)C(=O)N2[C@H]1C(=O)O` [Azlocillin] and `CC1(C)S[C@@H]2[C@H](NC(=O)[C@H](N)c3ccc(O)cc3)C(=O)N2[C@H]1C(=O)O` [Amoxicillin] are the same in degeneracy: 0% for the first, 0% for the second.

Compared with `CC(C)c1ccc2oc3nc(N)c(C(=O)O)cc3c(=O)c2c1` [Amlexanox], `CCCCCCc1ccc(O)cc1O.Nc1c2ccccc2nc2ccccc12` [Acrisorcin] is higher in degeneracy: 4.44% for the first, 100% for the second.

First: NC(=O)c1cc[n+](CC2=C(C(=O)O)N3C(=O)[C@@H](NC(=O)[C@@H](c4ccccc4)S(=O)(=O)[O-])[C@H]3SC2)cc1 [Cefsulodin Sodium]
Second: COC(=O)Nc1nc2cc(C(=O)c3ccccc3)ccc2[nH]1 [Mebendazole]
The degeneracy of the first is lower: 0% for the first, 5.71% for the second.

Compared with `CC1CC(OC(=O)C(O)c2ccccc2)CC(C)(C)C1` (stereo not given) [Cyclandelate], `CN1C(=O)CC(c2ccccc2)C1=O` (stereo not given) [Phensuccimide] is lower in degeneracy: 100% for the first, 2.7% for the second.

Compared with `Cc1onc(-c2c(Cl)cccc2Cl)c1C(=O)N[C@@H]1C(=O)N2[C@@H]1SC(C)(C)[C@@H]2C(=O)O` [Dicloxacillin Sodium], `N=C(N)NC(=O)Cc1c(Cl)cccc1Cl` [Guanfacine Hydrochloride] is lower in degeneracy: 13% for the first, 2.27% for the second.

First: CN1C(C)(C)CCCC1(C)C [Pempidine Tartrate]
Second: Cc1c(C)c2c(c(C)c1O)CCC(C)(COc1ccc(CC3SC(=O)NC3=O)cc1)O2 (stereo not given) [Troglitazone]
The degeneracy of the first is lower: 6.06% for the first, 100% for the second.

First: CC[N+](C)(C)Cc1ccccc1Br [Bretylium Tosylate]
Second: CCN(CC)C(=O)c1cccc(C)c1 [Deet, Diethyltoluamide]
The degeneracy of the first is lower: 0% for the first, 2.7% for the second.

Going from `CC(C)(C(=O)O)c1ccc(C(O)CCCN2CCC(C(O)(c3ccccc3)c3ccccc3)CC2)cc1` (stereo not given) [Fexofenadine] to `Fc1ccc(C(c2ccc(F)cc2)N2CCN(C/C=C/c3ccccc3)CC2)cc1` [flunarizine], the degeneracy rises from 5.41% to 26.3%.

First: Oc1ncnc2[nH]ncc12 [Allopurinol]
Second: Cc1ncc(CO)c(CO)c1O [Pyridoxine]
The degeneracy of the first is lower: 0% for the first, 8.57% for the second.

Going from `CCOC(=O)C1=C[C@@H](OC(CC)CC)[C@H](NC(C)=O)[C@@H](N)C1` [Oseltamivir] to `COc1cc(C(=O)NCCCCCC(=O)O)cc(OC)c1OC` [Capobenic Acid], the degeneracy rises from 4.76% to 14.3%.

Going from `CN(N=O)C(=O)N[C@H]1C(O)O[C@H](CO)[C@@H](O)[C@@H]1O` (mixture of isomers) [Streptozosin] to `CN[C@@H]1[C@H](O[C@H]2[C@H](O[C@H]3[C@H](O)[C@@H](O)[C@H](N=C(N)N)[C@@H](O)[C@@H]3N=C(N)N)O[C@@H](C)[C@]2(O)C=O)O[C@@H](CO)[C@H](O)[C@H]1O` [Streptomycin Sulfate], the degeneracy falls from 14.3% to 6.45%.

First: O=C(OC[C@H]1O[C@@H](OC(=O)c2cc(O)c(O)c(OC(=O)c3cc(O)c(O)c(O)c3)c2)[C@H](OC(=O)c2cc(O)c(O)c(OC(=O)c3cc(O)c(O)c(O)c3)c2)[C@@H](OC(=O)c2cc(O)c(O)c(OC(=O)c3cc(O)c(O)c(O)c3)c2)[C@@H]1OC(=O)c1cc(O)c(O)c(OC(=O)c2cc(O)c(O)c(O)c2)c1)c1cc(O)c(O)c(OC(=O)c2cc(O)c(O)c(O)c2)c1 [Tannic Acid]
Second: NC[C@@H]1CC[C@@H](N)[C@@H](O[C@H]2[C@H](O)[C@@H](O[C@H]3O[C@H](CO)[C@@H](O)[C@H](N)[C@H]3O)[C@H](N)C[C@@H]2N)O1 [Dibekacin]
The degeneracy of the first is higher: 100% for the first, 17.1% for the second.

First: CN1CCc2c(c3ccccc3n2Cc2ccccc2)C1 [Mebhydrolin Naphthalenesulfonate]
Second: OCCOCCN1CCN(C2=Nc3ccccc3Sc3ccccc32)CC1 [Quetiapine]
The degeneracy of the first is higher: 72% for the first, 5.71% for the second.

`Nc1nc(Cl)nc2c1ncn2[C@H]1C[C@H](O)[C@@H](CO)O1` [Cladribine] and `Nc1ccn([C@@H]2O[C@H](CO)[C@@H](O)C2(F)F)c(=O)n1` [Gemcitabine] are the same in degeneracy: 0% for the first, 0% for the second.

Going from `O=C(O)CC(O)(CC(=O)O)C(=O)O` [Citric Acid] to `CCCN(CCC)S(=O)(=O)c1ccc(C(=O)O)cc1` [Probenecid], the degeneracy rises from 5.66% to 8%.

Compared with `C[C@]12CC[C@@H]3c4ccc(O)cc4CC[C@H]3[C@@H]1CC[C@@H]2O` [Estradiol], `CN(C)CC/C=C1/c2ccccc2Sc2ccc(Cl)cc21` [Chlorprothixene Hydrochloride] is higher in degeneracy: 7.5% for the first, 100% for the second.

Going from `C[C@]12CC[C@@H]3c4ccc(O)cc4CC[C@H]3[C@@H]1CC[C@@H]2O` [Beta-estradiol] to `CCN(CC)C(=O)c1cccnc1` [Nikethamide], the degeneracy falls from 11.1% to 3.57%.
